The text below walks through data of the supplement of paper PMC12819154, “High-throughput peptide-centric local stability assay extends protein–ligand identification to membrane proteins, tissues and bacteria” (Nature Structural & Molecular Biology, 2025).

The chains behind the UniProt entries cited, without tags or fusion partners. Where a name states a change or a piece, a line headed by the entry shows the natural chain unless it says otherwise.
UniProt Q8BTZ7: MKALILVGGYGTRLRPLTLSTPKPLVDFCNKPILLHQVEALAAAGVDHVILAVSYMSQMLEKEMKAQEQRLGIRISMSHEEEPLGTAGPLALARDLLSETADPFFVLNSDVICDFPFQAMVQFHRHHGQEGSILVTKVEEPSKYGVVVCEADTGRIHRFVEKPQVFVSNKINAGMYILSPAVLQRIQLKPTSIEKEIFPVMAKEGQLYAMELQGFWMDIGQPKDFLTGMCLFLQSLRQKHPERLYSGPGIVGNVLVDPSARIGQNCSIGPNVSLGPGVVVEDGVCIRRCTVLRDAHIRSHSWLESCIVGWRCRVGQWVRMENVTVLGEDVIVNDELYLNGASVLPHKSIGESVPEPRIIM
UniProt Q8BJ37, whole entry: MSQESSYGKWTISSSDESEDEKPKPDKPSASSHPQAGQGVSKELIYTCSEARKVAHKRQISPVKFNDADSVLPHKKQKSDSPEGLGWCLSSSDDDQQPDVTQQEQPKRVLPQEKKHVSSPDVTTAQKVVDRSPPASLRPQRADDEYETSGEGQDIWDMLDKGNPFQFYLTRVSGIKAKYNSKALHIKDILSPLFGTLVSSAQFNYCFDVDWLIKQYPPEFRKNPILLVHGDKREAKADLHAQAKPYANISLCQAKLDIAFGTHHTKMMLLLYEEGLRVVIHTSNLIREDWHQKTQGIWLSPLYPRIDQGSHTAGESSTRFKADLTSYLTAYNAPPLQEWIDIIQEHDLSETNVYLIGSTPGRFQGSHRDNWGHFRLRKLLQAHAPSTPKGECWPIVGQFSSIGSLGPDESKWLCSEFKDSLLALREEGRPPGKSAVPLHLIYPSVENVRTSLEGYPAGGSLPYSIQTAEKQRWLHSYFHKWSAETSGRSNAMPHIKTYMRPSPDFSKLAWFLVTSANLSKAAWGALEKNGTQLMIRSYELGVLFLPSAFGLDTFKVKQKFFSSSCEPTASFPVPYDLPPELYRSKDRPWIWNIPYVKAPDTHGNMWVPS
UniProt Q8BU30: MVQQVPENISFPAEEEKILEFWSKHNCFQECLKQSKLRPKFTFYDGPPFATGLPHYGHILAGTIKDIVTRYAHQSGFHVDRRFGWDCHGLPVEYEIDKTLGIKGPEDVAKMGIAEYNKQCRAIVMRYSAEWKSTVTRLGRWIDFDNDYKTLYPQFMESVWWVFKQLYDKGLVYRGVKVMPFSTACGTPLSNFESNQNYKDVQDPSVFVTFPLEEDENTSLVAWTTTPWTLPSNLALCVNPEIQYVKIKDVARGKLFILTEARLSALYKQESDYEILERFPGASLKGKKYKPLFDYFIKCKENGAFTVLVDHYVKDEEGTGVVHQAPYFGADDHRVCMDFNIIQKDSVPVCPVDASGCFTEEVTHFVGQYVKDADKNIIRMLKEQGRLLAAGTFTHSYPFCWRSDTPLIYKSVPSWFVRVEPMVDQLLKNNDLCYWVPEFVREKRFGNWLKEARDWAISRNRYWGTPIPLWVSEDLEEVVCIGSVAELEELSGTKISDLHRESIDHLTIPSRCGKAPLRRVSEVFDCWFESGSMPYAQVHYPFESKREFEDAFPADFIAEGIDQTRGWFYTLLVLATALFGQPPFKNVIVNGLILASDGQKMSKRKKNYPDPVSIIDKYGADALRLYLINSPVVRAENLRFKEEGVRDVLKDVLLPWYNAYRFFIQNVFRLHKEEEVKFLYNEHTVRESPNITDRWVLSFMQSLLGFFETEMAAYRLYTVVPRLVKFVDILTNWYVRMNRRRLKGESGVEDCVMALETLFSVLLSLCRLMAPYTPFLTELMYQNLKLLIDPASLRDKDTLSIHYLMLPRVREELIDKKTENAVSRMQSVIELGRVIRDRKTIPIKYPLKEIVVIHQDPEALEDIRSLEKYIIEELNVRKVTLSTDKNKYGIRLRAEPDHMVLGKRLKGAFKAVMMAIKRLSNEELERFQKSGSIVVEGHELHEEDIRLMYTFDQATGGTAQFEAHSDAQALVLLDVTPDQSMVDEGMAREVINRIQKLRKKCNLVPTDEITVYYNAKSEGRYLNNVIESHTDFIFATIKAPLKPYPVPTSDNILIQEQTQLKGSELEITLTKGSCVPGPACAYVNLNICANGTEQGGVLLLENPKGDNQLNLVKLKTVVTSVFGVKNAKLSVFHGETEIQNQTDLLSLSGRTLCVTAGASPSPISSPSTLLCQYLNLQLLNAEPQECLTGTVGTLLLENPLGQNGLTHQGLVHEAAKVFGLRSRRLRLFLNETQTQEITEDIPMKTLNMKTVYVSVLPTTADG
UniProt Q8BTZ4, whole entry: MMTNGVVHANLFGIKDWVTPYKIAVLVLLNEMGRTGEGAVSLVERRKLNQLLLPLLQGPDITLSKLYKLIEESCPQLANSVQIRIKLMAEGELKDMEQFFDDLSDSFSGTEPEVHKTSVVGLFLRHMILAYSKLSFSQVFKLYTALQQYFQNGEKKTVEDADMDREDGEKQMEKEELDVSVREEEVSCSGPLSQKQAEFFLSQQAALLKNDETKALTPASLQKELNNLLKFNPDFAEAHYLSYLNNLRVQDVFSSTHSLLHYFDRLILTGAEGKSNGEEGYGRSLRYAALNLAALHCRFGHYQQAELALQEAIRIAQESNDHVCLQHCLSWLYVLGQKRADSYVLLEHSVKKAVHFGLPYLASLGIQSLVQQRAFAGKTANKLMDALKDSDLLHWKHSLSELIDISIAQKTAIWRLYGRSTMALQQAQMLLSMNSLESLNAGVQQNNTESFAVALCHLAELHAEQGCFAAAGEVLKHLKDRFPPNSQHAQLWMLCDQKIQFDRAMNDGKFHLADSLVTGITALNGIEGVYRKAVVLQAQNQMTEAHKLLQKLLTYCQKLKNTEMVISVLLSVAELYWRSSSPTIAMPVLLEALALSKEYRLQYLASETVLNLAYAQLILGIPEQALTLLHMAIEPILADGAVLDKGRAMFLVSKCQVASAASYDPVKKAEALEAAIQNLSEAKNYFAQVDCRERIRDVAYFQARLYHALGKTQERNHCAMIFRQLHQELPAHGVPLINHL
UniProt Q8BUE4: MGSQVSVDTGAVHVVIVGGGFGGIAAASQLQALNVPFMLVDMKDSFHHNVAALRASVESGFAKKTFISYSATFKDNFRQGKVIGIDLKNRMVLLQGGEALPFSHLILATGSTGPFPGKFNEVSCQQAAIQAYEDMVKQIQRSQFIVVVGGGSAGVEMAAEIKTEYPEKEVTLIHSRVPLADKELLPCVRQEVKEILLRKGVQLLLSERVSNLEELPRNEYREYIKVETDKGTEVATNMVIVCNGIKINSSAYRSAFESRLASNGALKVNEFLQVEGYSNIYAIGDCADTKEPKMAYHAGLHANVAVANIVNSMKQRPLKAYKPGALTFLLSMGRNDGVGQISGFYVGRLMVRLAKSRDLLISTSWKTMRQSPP
UniProt Q8BR37: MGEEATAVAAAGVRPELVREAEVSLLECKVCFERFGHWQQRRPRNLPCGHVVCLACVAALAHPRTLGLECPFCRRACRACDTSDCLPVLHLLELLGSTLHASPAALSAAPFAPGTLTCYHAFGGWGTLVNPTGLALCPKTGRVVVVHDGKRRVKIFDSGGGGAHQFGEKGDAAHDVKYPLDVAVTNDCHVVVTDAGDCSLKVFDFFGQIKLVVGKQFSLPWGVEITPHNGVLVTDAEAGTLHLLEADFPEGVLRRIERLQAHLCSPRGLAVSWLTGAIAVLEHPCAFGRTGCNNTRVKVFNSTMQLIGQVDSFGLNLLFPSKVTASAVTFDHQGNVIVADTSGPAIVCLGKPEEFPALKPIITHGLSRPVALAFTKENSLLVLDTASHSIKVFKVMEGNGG
UniProt Q8BM55: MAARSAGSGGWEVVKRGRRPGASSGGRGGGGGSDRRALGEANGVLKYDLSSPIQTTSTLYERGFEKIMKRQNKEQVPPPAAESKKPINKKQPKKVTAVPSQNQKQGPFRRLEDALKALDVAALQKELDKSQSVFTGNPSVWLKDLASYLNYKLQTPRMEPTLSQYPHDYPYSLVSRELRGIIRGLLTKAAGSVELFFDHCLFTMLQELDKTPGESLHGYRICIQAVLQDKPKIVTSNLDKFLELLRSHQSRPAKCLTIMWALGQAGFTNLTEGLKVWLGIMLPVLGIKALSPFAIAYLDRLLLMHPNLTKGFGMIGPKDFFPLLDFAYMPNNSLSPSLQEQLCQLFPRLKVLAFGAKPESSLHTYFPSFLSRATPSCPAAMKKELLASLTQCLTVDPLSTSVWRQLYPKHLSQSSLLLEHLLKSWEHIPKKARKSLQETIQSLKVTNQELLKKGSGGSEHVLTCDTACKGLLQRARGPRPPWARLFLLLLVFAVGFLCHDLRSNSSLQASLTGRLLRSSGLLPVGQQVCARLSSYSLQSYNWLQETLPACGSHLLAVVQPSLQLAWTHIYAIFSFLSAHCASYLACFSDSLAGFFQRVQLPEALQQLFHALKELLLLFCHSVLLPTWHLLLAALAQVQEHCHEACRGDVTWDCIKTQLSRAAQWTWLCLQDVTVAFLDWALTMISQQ
UniProt Q8BTI9: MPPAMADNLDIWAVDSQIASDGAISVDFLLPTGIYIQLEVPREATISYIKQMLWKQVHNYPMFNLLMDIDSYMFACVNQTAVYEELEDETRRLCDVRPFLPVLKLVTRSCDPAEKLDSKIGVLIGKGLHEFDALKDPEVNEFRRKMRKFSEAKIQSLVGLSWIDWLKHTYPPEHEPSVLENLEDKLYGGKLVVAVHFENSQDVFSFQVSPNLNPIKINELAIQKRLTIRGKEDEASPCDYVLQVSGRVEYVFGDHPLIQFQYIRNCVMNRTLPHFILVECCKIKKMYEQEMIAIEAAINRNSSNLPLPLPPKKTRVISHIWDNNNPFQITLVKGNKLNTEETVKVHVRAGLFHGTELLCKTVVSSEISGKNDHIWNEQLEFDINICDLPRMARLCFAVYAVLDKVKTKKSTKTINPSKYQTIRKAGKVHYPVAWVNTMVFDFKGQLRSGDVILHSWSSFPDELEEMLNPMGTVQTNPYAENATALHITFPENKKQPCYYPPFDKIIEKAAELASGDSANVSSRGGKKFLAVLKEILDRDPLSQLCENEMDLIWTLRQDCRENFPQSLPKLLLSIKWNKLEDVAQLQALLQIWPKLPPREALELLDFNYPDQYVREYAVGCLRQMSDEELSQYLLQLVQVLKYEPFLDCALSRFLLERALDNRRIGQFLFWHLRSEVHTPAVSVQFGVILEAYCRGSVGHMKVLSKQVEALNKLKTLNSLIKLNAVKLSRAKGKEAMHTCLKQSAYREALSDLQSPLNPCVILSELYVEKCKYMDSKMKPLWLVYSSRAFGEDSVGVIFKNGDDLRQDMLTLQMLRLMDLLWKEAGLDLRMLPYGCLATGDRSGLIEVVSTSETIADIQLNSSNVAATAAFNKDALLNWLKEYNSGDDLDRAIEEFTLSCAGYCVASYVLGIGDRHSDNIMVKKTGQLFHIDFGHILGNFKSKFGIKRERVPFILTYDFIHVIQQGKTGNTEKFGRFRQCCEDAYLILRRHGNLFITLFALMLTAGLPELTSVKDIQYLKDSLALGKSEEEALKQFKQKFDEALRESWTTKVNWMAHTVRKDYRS
UniProt Q8BKE6: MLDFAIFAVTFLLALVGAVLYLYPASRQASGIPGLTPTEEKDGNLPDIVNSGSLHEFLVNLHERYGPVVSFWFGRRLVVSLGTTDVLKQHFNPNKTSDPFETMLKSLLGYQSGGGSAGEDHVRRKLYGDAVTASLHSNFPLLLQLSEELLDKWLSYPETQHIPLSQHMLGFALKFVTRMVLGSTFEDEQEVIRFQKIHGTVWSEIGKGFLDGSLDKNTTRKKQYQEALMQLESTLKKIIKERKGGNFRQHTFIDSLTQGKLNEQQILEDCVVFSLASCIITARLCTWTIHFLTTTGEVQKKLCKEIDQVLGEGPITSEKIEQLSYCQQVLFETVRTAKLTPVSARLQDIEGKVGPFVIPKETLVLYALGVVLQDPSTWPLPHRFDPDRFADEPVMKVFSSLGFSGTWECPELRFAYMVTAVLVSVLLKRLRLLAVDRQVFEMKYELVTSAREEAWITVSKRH
UniProt Q8BSP2: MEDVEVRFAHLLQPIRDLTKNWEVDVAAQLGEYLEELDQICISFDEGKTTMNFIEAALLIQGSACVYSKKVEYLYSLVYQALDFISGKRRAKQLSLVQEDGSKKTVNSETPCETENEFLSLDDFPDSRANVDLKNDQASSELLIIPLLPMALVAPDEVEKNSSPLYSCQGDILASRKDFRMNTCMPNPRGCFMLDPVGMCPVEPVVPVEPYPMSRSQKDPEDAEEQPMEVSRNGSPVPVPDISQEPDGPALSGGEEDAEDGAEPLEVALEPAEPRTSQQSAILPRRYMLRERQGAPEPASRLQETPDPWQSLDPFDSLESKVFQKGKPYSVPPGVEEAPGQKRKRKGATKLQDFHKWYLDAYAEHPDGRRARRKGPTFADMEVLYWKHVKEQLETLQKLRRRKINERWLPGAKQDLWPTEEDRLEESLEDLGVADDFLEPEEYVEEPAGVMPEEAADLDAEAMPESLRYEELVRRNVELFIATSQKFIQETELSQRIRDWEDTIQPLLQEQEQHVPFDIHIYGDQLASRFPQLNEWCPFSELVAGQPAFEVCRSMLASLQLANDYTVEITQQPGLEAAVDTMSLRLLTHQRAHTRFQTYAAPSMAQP

The list shows a part of the results. Small differences around the control level are noise.

Compound in the test: CN[C@@H]1C[C@H]2O[C@@](C)([C@@H]1OC)n1c3ccccc3c3c4c(c5c6ccccc6n2c5c31)C(=O)NC4 [staurosporine]
The test is described as follows: log2 fold change of tryptic peptide abundance, ligand vs vehicle (limited proteolysis) (log2 ratio); higher = more trypsin-susceptible (destabilized). The settings on record: ligand concentration: 20 uM; sample: mouse liver crude lysate; replicate design: treated separately.
For “UniProt Q8BTZ7 (peptide sequence: IQLKPTSIEKEIFPVMAK, peptide start residue: 186)”, the log2 fold change is -0.439.
Consider “UniProt Q8BU33 (peptide sequence: LGSDVACSLAYTDYHK, peptide start residue: 562)”, for which the log2 fold change was -0.408.
In the case of “UniProt Q8BP92 (peptide sequence: HYAMQEAK, peptide start residue: 99)” it was -0.146; in that of “UniProt Q8BRN9 (peptide sequence: RQDLEQAK, peptide start residue: 547)”, -0.949.
In the case of “UniProt Q8BJ37 (peptide sequence: HVSSPDVTTAQK, peptide start residue: 116)” it was 0.0743; in that of “UniProt Q8BSI6 (peptide sequence: IRPLTQGTK, peptide start residue: 426)”, -0.605; in that of “UniProt Q8BU30 (peptide sequence: FFIQNVFR, peptide start residue: 662)”, 0.464.
Take “UniProt Q8BTZ4 (peptide sequence: YAALNLAALHCR, peptide start residue: 287)”: the log2 fold change came out at 0.274.
To “UniProt Q8BKC8 (peptide sequence: KLILSDELKPAHR, peptide start residue: 238)” belongs 0.249.
Consider “UniProt Q8BVD5 (peptide sequence: NSEPLGATIK, peptide start residue: 145)”, for which the log2 fold change is -0.22.
To “UniProt Q8BN78 (peptide sequence: NTNDPGLR, peptide start residue: 396)” belongs -0.229; to “UniProt Q8BMQ2 (peptide sequence: CLLHDSIAR, peptide start residue: 783)”, 0.485.
Consider “UniProt Q8BMS2 (peptide sequence: AFAPPSLDLASR, peptide start residue: 249)”, for which the log2 fold change was -0.113.
Regarding “UniProt Q8BMP6 (peptide sequence: EWAALGNMSK, peptide start residue: 142)”, the log2 fold change is 0.151.
In the case of “UniProt Q8BIG4 (peptide sequence: KATEAIDSLR, peptide start residue: 350)”, the log2 fold change was 0.628.
To “UniProt Q8BI84 (peptide sequence: TGNSSPASVER, peptide start residue: 250)” belongs -0.516; to “UniProt Q8BUE4 (peptide sequence: VSNLEELPRNEYR, peptide start residue: 209)”, -0.281; to “UniProt Q8BUM3 (peptide sequence: EVTLHFLR, peptide start residue: 69)”, 0.476.
To “UniProt Q8BP97 (peptide sequence: SSPAHCTGTGAS, peptide start residue: 374)” belongs 0.238.
Regarding “UniProt Q8BMJ7 (peptide sequence: YFKQCPMCR, peptide start residue: 301)”, the log2 fold change was -0.159.
In the case of “UniProt Q8BPT6 (peptide sequence: VIALEGDIVR, peptide start residue: 93)” it was 0.0917; in that of “UniProt Q8BR37 (peptide sequence: FGHWQQR, peptide start residue: 35)”, -0.152.
To “UniProt Q8BP07 (peptide sequence: SSWPTHCK, peptide start residue: 157)” belongs -0.0231; to “UniProt Q8BM55 (peptide sequence: VLAFGAKPESSLHTYFPSFLSR, peptide start residue: 351)”, 0.415; to “UniProt Q8BSM7 (peptide sequence: LIGLALDHK, peptide start residue: 236)”, -0.0789.
In the case of “UniProt Q8BKC5 (peptide sequence: FYFHDGVR, peptide start residue: 713)” it was 0.333; in that of “UniProt Q8BTC1 (peptide sequence: RHEPHVSQQ, peptide start residue: 59)”, 0.0224; in that of “UniProt Q8BTI9 (peptide sequence: LMDLLWK, peptide start residue: 816)”, -0.189.
On to “UniProt Q8BPN8 (peptide sequence: CIAGEVAIVRDPDAGEGTKR, peptide start residue: 1373)”, for which the log2 fold change is -0.33.
In the case of “UniProt Q8BQU3 (peptide sequence: TVGPGEAQR, peptide start residue: 44)” it was -0.139.
Regarding “UniProt Q8BMA6 (peptide sequence: VTEELLTDNR, peptide start residue: 112)”, the log2 fold change turned out to be 0.28.
For “UniProt Q8BU11 (peptide sequence: TVVVETGKK, peptide start residue: 200)”, the log2 fold change was -0.154.
As to “UniProt Q8BI22 (peptide sequence: YSLHGDSVQQR, peptide start residue: 1001)”, the log2 fold change was found to be 0.359.
As to “UniProt Q8BKE6 (peptide sequence: SLLGYQSGGGSAGEDHVRR, peptide start residue: 106)”, the log2 fold change was -0.364.
In the case of “UniProt Q8BSP2 (peptide sequence: TSQQSAILPR, peptide start residue: 276)” it was -0.17.
